{"source": "patent US20250136686A1", "about": "(GUANGDONG KEGUANDA PHARMACEUTICAL TECHNOLOGY, published 2025)", "binders": {"B1": {"name": "chimeric antibody CA2 (antibody, V domains shown)", "VH": "EVQLQQSGAELVRPGTSVKVSCKASGYAFTHYFIEWVKQRPGQGLEWIGVITPGSGGTNYNEKFKGKATLTADKSSSTAYMQLSSLTSEDSAVYFCARGNHGNYWGQGTTLTVSS", "VL": "DIQLTQPPASLSVSVGETVTITCRASENIYSNLAWYQQKQGKSPQLLVYAATNLADGVPSRFSGSGSGTQYSLKINSLQSEDFGSYYCQHFWGNPWTFGGGTKLEIK"}}, "key": {"CD101 (human) [1]": {"target": "T1, CD101 (human) (UniProt Q93033)", "T1 sequence (looked up)": "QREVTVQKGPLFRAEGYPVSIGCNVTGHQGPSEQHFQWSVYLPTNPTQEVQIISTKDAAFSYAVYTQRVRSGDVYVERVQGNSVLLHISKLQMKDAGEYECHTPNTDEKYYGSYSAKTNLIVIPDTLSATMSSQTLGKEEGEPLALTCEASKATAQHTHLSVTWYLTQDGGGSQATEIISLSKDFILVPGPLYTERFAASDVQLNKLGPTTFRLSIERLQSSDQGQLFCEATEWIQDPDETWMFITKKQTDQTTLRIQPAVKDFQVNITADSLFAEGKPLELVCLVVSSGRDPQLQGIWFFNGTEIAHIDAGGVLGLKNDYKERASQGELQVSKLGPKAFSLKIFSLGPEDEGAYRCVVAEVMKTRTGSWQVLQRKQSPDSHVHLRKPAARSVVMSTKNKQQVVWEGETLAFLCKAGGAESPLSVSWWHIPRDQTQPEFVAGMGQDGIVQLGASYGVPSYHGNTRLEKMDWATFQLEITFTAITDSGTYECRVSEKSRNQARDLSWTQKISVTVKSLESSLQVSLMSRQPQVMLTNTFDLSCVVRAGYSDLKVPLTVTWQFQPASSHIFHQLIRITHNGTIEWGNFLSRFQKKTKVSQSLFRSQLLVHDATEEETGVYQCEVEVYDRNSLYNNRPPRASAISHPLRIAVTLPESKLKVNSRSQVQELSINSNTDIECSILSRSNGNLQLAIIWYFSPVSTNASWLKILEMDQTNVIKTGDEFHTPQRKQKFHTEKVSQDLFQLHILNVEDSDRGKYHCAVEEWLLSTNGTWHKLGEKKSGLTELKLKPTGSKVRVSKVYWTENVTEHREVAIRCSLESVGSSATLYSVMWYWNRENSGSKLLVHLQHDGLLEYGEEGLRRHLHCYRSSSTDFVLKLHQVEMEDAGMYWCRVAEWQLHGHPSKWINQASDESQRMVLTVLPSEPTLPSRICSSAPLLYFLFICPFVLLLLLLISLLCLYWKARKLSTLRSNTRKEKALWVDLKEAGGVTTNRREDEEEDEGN", "experiment": "FACS, purified chimeric antibody on cells expressing CD101"}, "CD101 (human) [2]": {"target": "T1, CD101 (human)", "experiment": "FACS, culture supernatant on 293F-CD101 against 293F cells"}}, "note": "These are yes or no findings as the source states them, for the method shown. Some binding calls cover weakened binding; strength is not graded here.", "data": [{"binder": "B1", "values": [{"measurement": "binding", "setting": "CD101 (human) [1]", "value": "binds"}, {"measurement": "binding", "setting": "CD101 (human) [2]", "value": "binds"}]}]}
